The results in this text go back to PubChem BioAssay AID445 (National Center for Advancing Translational Sciences (NCATS), 2006).

This is one part of the list. Shown are side measurements of this screen, not its main read-out; they come without a call. Most of these compounds were active or inconclusive in the main read-out, so they are no random draw. The note in brackets gives the kind of curve behind each potency; many fits are weak.

The experiment can be described thus: IkB Signaling. The conditions noted are these: ABC-DLBCL IkBa-CBG/CBR dual luciferase ratio (green luciferase fused to IkBa over red control in OCI-Ly3 lymphoma cells), 4 h. In outline:
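In this assay, an IκBα–CBG68 fusion accumulates when IKK-driven degradation is blocked; native CBR normalizes for cell number. OCI-Ly3 cells were treated 4 h with compound and doxycycline, then green and red light read after Chroma-Glo addition.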

[1] abbreviates: measured here: control luc red channel unless noted.

Broadly, the AC50 is the concentration giving half of the maximal activity seen. As for `CC1C(O)=C(c2nc3ccccc3[nH]2)C(=N)N1c1ccccc1` (configuration not stated), the half-maximal activity concentration (AC50) under setting [1] was 31.6 µM [rising, partial curve] [measured here: IkB-luc green channel].

As for `O=C(CSCc1nc2ccccc2[nH]1)N1CCN(c2cccc(Cl)c2)CC1`, the AC50 under setting [1] was 3.98 µM [falling, partial curve].

As for `Cc1ccc(NC(=O)Nc2c(C)n(C)n(-c3ccccc3)c2=O)c(Cl)c1`, under setting [1], the AC50 is 31.6 µM [falling, single point].

For the compound `COc1ccccc1NC(=O)c1ccc(-c2nc(COc3ccc(C)cc3)c(C)o2)cc1`, under setting [1], the concentration at half-maximal activity (AC50) was 15.8 µM [falling, single point].

As for `CCOc1ccc(NC(=O)C2=C(C)C(=O)OC23CCC(C)CC3)cc1` (configuration not stated), the half-maximal activity concentration (AC50) under setting [1] was 25.1 µM [falling, single point].

Consider `COc1ccc(-c2cc(C)no2)cc1S(=O)(=O)N1CCCC(C)C1` (configuration not stated), for which the AC50 under setting [1] was 39.8 µM [rising, single point] [measured here: IkB-luc green channel].

For `Cc1cccc(NC(=O)c2ccc3[nH]c(C)cc(=O)c3c2)c1`, under setting [1], the half-maximal activity concentration (AC50) was 2.51 µM [rising, full curve].

For `COc1cc(C2=NOC(C(=O)Nc3ccc(C)cc3)C2)cc(OC)c1OC` (configuration not stated), the AC50 under setting [1] is 20 µM [falling, partial curve].

As to `COC(=O)C(C)n1cnc2c(cnn2-c2ccc(Cl)cc2)c1=O` (configuration not stated), the concentration at half-maximal activity (AC50) under setting [1] is 25.1 µM [falling, partial curve].

As for `CCN(CC)C(=O)c1ccc2c(c1)N(Cc1ccccc1F)C(=O)c1ccccc1S2=O` (configuration not stated), the AC50 under setting [1] was 3.16 µM [rising, partial curve].

For the compound `Cc1ccc(NC(=O)Cn2c(=O)nc(-c3ccccc3)c3ccccc32)cc1`, the half-maximal activity concentration (AC50) under setting [1] is 5.01 µM [falling, partial curve].

For the compound `Cc1cccc(C(=O)n2nc(-c3cccnc3)nc2NCc2ccc(F)cc2)c1`, the concentration at half-maximal activity (AC50) under setting [1] is 7.94 µM [falling, partial curve].

Turning to `CCOC(=O)Cc1c(C)nc2cc(-c3ccc(C(C)(C)C)cc3)nn2c1C`, the concentration at half-maximal activity (AC50) under setting [1] is 31.6 µM [falling, single point].

With `COc1ccc(-n2ncc(C(=O)N3CCN(C4CCCCC4)CC3)c2C2CCN(C(=O)OC(C)(C)C)CC2)cc1`, under setting [1], the AC50 was 20 µM [falling, partial curve].

For the compound `C=CCc1ccccc1OCc1nc2ccc(C)cc2[nH]1`, under setting [1], the AC50 was 15.8 µM [falling, partial curve].

Consider `Cn1c(=O)c2c(nc(NC3CCCCC3)n2CC(=O)C23CC4CC(CC(C4)C2)C3)n(C)c1=O`, for which, under setting [1], the AC50 is 20 µM [falling, partial curve].

With `CCOC(=O)c1c(NC(=O)CSc2nc(-c3ccc(OC)cc3)cc(C(F)(F)F)n2)sc(C)c1C`, the AC50 under setting [1] is 3.98 µM [falling, partial curve, poor fit].

As for `COc1cc(CN(C(=O)Nc2cccc(Cl)c2)c2ccccn2)cc(OC)c1OC`, the AC50 under setting [1] was 6.31 µM [rising, full curve].

For `Cc1ccc(C(=O)NCC(c2cccs2)S(=O)(=O)c2ccccc2)cc1C` (configuration not stated), the concentration at half-maximal activity (AC50) under setting [1] was 39.8 µM [falling, single point].

With `CC(C)Nc1nc2c(S(=O)(=O)c3cccc(Cl)c3)nnn2c2ccsc12`, the AC50 under setting [1] was 1.26 µM [rising, full curve, poor fit].

`CCCCC(CC)CNC(=O)CCCCn1c(=O)[nH]c2ccsc2c1=O` (configuration not stated): under setting [1], the AC50 is 5.01 µM [falling, partial curve].

Regarding `CCC(=O)N1CCc2cc(CNS(=O)(=O)c3ccc(C(C)C)cc3)ccc21`, under setting [1], the AC50 was 39.8 µM [falling, single point].

`COC(=O)c1ccc2c(=O)n(CCCCCC(=O)N3CCN(c4cc(C)ccc4C)CC3)c(=O)[nH]c2c1`: the half-maximal activity concentration (AC50) under setting [1] was 7.94 µM [falling, partial curve].

On to `CCC(C)Nc1ccc(NC(C)CC)cc1` (configuration not stated), for which the half-maximal activity concentration (AC50) under setting [1] was 10 µM [falling, full curve].

For `CCCSc1ncc(Cl)c(C(=O)N2CCN(c3cccc(Cl)c3)CC2)n1`, the concentration at half-maximal activity (AC50) under setting [1] was 12.6 µM [falling, partial curve].

With `CCOc1ccc(NC(=O)CC2C(=O)N(c3ccc(OC)cc3)C(=O)N2C2CCCCC2)cc1` (configuration not stated), under setting [1], the AC50 is 39.8 µM [falling, single point].

With `Cc1cccc(N2CCN(C(=O)c3cnn(-c4ccc(F)cc4F)c3C3CCN(C(=O)OC(C)(C)C)CC3)CC2)c1C`, the half-maximal activity concentration (AC50) under setting [1] was 15.8 µM [falling, partial curve].

On to `CCCNC(=O)CSc1c2c(nc3ccc(Cl)cc13)CCCC2`, for which the AC50 was 20 µM [rising, single point] (measured here: IkB-luc green channel) and 12.6 µM [falling, partial curve] (measured here: control luc red channel).

For the compound `CCOC(=O)c1cc2c(=O)n3ccccc3nc2n(Cc2ccco2)c1=NC(=O)c1cccc(C)c1`, the AC50 under setting [1] is 12.6 µM [falling, partial curve].

`Cc1ccc(NC(=O)CSc2nc3ccccc3c(=O)n2CCC(=O)NC2CCCCC2)cc1C`: the AC50 under setting [1] was 0.316 µM [falling, full curve].

Regarding `Cc1cccc(N2CCN(C(=O)C3CCN(S(=O)(=O)c4c(C)noc4/C=C/c4ccccc4F)CC3)CC2C)c1` (configuration not stated), the AC50 under setting [1] is 2.51 µM [falling, full curve].

In the case of `Cc1ccc(C2C=C(c3ccccc3)Nc3nc(NS(=O)(=O)c4ccc(C)cc4)nn32)cc1` (configuration not stated), the AC50 under setting [1] is 31.6 µM [falling, single point].

With `Cc1ccc2oc(=O)c3cnn(CC(=O)N4CCN(c5ccccc5F)CC4)c3c2c1`, the concentration at half-maximal activity (AC50) under setting [1] was 25.1 µM [falling, partial curve].

Take `CCc1ccccc1NC(=O)c1ccc(Cn2nc(N3CCN(c4ccccc4)CC3)ccc2=O)o1`: the half-maximal activity concentration (AC50) under setting [1] was 31.6 µM [falling, single point].

As to `Cc1nc2c3ccccc3nc(NNC(=O)CCC(=O)N3CCN(c4cc(Cl)ccc4C)CC3)n2n1`, the AC50 under setting [1] is 20 µM [falling, partial curve].

For `O=C(C1CCN(S(=O)(=O)c2ccc3ccccc3c2)CC1)N1CCN(c2ncccn2)CC1`, the AC50 under setting [1] was 15.8 µM [falling, partial curve].

As to `COc1cccc(NC(=O)c2sc3nc(C)c(C(=O)Nc4ccc(C)cc4C)c(-c4ccco4)c3c2N)c1`, the AC50 under setting [1] is 3.16 µM [falling, full curve].

With `COc1ccc(OCC(=O)Nc2cccc(C(=O)OCc3cc(=O)n4nc(C)sc4n3)c2)cc1`, the concentration at half-maximal activity (AC50) under setting [1] is 1.26 µM [falling, partial curve].

Regarding `COCc1cc(C)nc2sc(C(=O)Nc3ccc(C(C)=O)cc3)c(N)c12`, the AC50 under setting [1] was 0.316 µM [rising, full curve].

On to `Cc1cc(OC(C)C(=O)N2CCC(c3nc4ccccc4o3)CC2)ccc1Cl` (configuration not stated), for which the AC50 under setting [1] is 12.6 µM [falling, partial curve].

Regarding `Cc1ccc(N(C)C(CNS(=O)(=O)c2ccccc2)c2ccccc2)cc1` (configuration not stated), the AC50 under setting [1] is 15.8 µM [falling, partial curve].

As to `COc1ccc(S(=O)(=O)Cc2ccc(C(=O)N3CCN(c4cccc(C)c4C)CC3)o2)cc1`, the AC50 under setting [1] was 12.6 µM [falling, partial curve].

Turning to `CCCNC(=O)C1CCN(C(=O)N2CC(C)Oc3ccccc32)CC1` (configuration not stated), the AC50 under setting [1] is 0.01 µM [falling, full curve].

As for `CCCCN(C)S(=O)(=O)c1ccc(NC2=NS(=O)(=O)c3ccccc32)cc1`, the AC50 under setting [1] was 20 µM [falling, partial curve, poor fit].

Take `O=C(Nc1sc2c(c1C(=O)O)CCCC2)c1cccs1`: the concentration at half-maximal activity (AC50) under setting [1] is 0.158 µM [falling, full curve].

Take `Cc1ccc(NC(=O)Cn2cc(C(=O)c3ccco3)c3ccccc32)cc1C`: under setting [1], the half-maximal activity concentration (AC50) is 12.6 µM [falling, partial curve].

With `N#C/C(=C/c1ccccc1Cl)c1nc2ccccc2c(=O)[nH]1`, under setting [1], the AC50 is 3.16 µM [rising, partial curve].

For the compound `COc1ccc2nc(NC(=O)C3CCN(S(=O)(=O)c4cccc5nsnc45)CC3)sc2c1`, under setting [1], the concentration at half-maximal activity (AC50) is 2.51 µM [falling, full curve].

As for `Cc1ccc(NS(=O)(=O)c2ccc(OCC(=O)NCc3ccco3)cc2)cc1`, under setting [1], the AC50 was 6.31 µM [falling, partial curve].

As for `Cc1ccccc1NC(=O)CNc1ccccc1N1CCCCC1`, the AC50 under setting [1] was 12.6 µM [falling, partial curve].

For `O=C(C1CCC(Cn2c(=O)c3sccc3n(Cc3cccc(F)c3)c2=O)CC1)N1CCOCC1` (configuration not stated), the AC50 under setting [1] is 10 µM [rising, partial curve].

As to `Cc1cc2nn(-c3ccc(F)cc3)nc2cc1NC(=O)c1cccc([N+](=O)[O-])c1C`, the half-maximal activity concentration (AC50) under setting [1] is 12.6 µM [rising, partial curve].

Consider `COc1cccc(OC(=O)CSc2nnc(-c3cccs3)o2)c1`, for which the concentration at half-maximal activity (AC50) under setting [1] was 20 µM [falling, partial curve].

With `CC(=O)Nc1ccc(Nc2nc3c(S(=O)(=O)c4cc(C)ccc4C)nnn3c3ccsc23)cc1`, the AC50 under setting [1] is 25.1 µM [rising, partial curve].

`Clc1cccc(-c2nc3ccccn3c2Nc2ccc3c(c2)OCCO3)c1`: under setting [1], the AC50 was 15.8 µM [falling, partial curve].

As to `COC(=O)c1ccc(Nc2nc(-c3ccccc3Cl)nc3ccccc23)cc1`, the AC50 under setting [1] was 15.8 µM [falling, partial curve].

As for `COc1ccc(N2C(=O)CSC23C(=O)N(CC(=O)Nc2ccccc2F)c2ccccc23)cc1` (configuration not stated), under setting [1], the AC50 was 39.8 µM [falling, single point].

Regarding `Cc1ccc(N(C)S(=O)(=O)c2ccc(-c3coc(C)n3)cc2)cc1`, the AC50 under setting [1] was 25.1 µM [falling, single point].

Take `O=C(CSc1nnc(-c2c[nH]c3ccccc23)o1)N(Cc1ccccc1)c1ccc(F)cc1`: the AC50 under setting [1] is 7.94 µM [falling, partial curve].

On to `CCn1cc(C(=O)Nc2ccc3c(c2)OCCO3)c2cc(OC)c(OC)cc2c1=O`, for which, under setting [1], the AC50 is 10 µM [falling, partial curve].

Take `CCc1nc2ccc(C(=O)N3CCN(c4cc(C)ccc4C)CC3)cc2nc1CC`: the AC50 under setting [1] was 39.8 µM [falling, single point].
